The assay deals with ERGIC-53 ΔL1 mutant (lacking the L1 loop between S-H1 and S-H2, Gln313 to Glu322) (human) (UniProt P49257). As to the kind of experiment: non-reducing SDS-PAGE with Western blot; lysate of transfected ERGIC-53 KO cells on a nonreducing SDS gel; migration pattern compared with the WT.

No constants are given. Whether binding was seen depends on the method and setting. Some binding calls cover weakened binding; strength is not graded here.

B1: ERGIC-53 ΔL1 mutant (lacking the L1 loop between S-H1 and S-H2, Gln313 to Glu322) (receptor, UniProt P49257)
chain: DGVGGDPAVALPHRRFEYKYSFKGPHLVQSDGTVPFWAHAGNAIPSSDQIRVAPSLKSQRGSVWTKTKAAFENWEVEVTFRVTGRGRIGADGLAIWYAENQGLEGPVFGSADLWNGVGIFFDSFDNDGKKNNPAIVIIGNNGQIHYDHQNDGASQALASCQRDFRNKPYPVRAKITYYQNTLTVMINNGFTPDKNDYEFCAKVENMIIPAQGHFGISAATGGLADDHDVLSFLTFQLTEPGKEPPTPDKEISEKEKEKYQEEFEHFQQELDKKKEEFQKGHPFESVGDRELRQVFEGQNRIHLEIKQLNRQLDMILDEQRRYVSSLTEEISKRGAGMPGQHGQITQQELDTVVKTQHEILRQVNEMKNSMSETVRLVSGMQHPGSAGGVYETTQHFIDIKEHLHIVKRDIDNLVQRNMPSNEKPKCPELPPFPSCLSTVHFIIFVVVQTVLFIGYIMYRSQQEAAAKKFF
On to B1, for which the binding result is listed as “binds”.

(Values after paper PMC10944485, “Structure of full-length ERGIC-53 in complex with MCFD2 for cargo transport” (Nature Communications, 2024).)
